Data as given in PubChem BioAssay AID1224828 (NIAID, 2016)
Aim: 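Regulators linking TLR4 signalling to p65 nuclear translocation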 (primary screen). System: mouse RAW264.7 G9 macrophage reporter cells (GFP-p65, Tnf promoter-mCherry). Reagents: siRNA pool against mouse genes, 100 nM. Duration: 2 days siRNA transfection, then 40 min LPS before fixation. Conditions: LPS (Salmonella minnesota R595) at 10 ng/ml. Measured: 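Imaged p65 nuclear translocation ratio, normalised to the plate median, converted to robust z-scores and averaged across two replicates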. Reading the numbers: p65 translocation robust z-score: higher = more nuclear NF-kappaB p65 after LPS than the plate median; nuclear/cytoplasmic p65 ratio: higher = more nuclear NF-kappaB p65. Active means: 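Called active when z exceeds 3.3 or falls under -1.56 (median of Tlr4 controls), giving activity score of at least 50; no calls for control wells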. Calls: active = hit (p65 shift raised or lowered); inactive = no clear change.
Here is a random part of about 17,000 deposited reagents. 762 of all reagents (4.5%) were called active. 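Active calls include both raised and lowered p65 entry, mostly lowered; wells with fewer than 50 cells lack a z-score.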 Raw values are not corrected between plates.

Tfpi — p65 translocation robust z-score: -0.57; nuclear/cytoplasmic p65 ratio, rep 1: 1.47; nuclear/cytoplasmic p65 ratio, rep 2: 1.4; low cell count flag: enough cells to score; Call: inactive
Ly6a — nuclear/cytoplasmic p65 ratio, rep 1: 1.73; nuclear/cytoplasmic p65 ratio, rep 2: 1.46; low cell count flag: fewer than 50 cells per well; well left out of scoring; Call: inactive
Sost — p65 translocation robust z-score: -2.21; nuclear/cytoplasmic p65 ratio, rep 1: 1.19; nuclear/cytoplasmic p65 ratio, rep 2: 1.26; low cell count flag: enough cells to score; Call: active
9430097D07Rik — p65 translocation robust z-score: -0.31; nuclear/cytoplasmic p65 ratio, rep 1: 1.37; nuclear/cytoplasmic p65 ratio, rep 2: 1.51; low cell count flag: enough cells to score; Call: inactive
Hlx — p65 translocation robust z-score: 0.17; nuclear/cytoplasmic p65 ratio, rep 1: 1.43; nuclear/cytoplasmic p65 ratio, rep 2: 1.43; low cell count flag: enough cells to score; Call: inactive
Or5t7 — p65 translocation robust z-score: 0.36; nuclear/cytoplasmic p65 ratio, rep 1: 1.69; nuclear/cytoplasmic p65 ratio, rep 2: 1.65; low cell count flag: enough cells to score; Call: inactive
Adamts19 — p65 translocation robust z-score: 0.63; nuclear/cytoplasmic p65 ratio, rep 1: 1.77; nuclear/cytoplasmic p65 ratio, rep 2: 1.66; low cell count flag: enough cells to score; Call: inactive
Trp53 — p65 translocation robust z-score: -0.7; nuclear/cytoplasmic p65 ratio, rep 1: 1.44; nuclear/cytoplasmic p65 ratio, rep 2: 1.38; low cell count flag: enough cells to score; Call: inactive
Gfral — p65 translocation robust z-score: 1.67; nuclear/cytoplasmic p65 ratio, rep 1: 1.9; nuclear/cytoplasmic p65 ratio, rep 2: 1.79; low cell count flag: enough cells to score; Call: inactive
Sytl4 — p65 translocation robust z-score: -0.39; nuclear/cytoplasmic p65 ratio, rep 1: 1.31; nuclear/cytoplasmic p65 ratio, rep 2: 1.08; low cell count flag: enough cells to score; Call: inactive
Eef1a2 — p65 translocation robust z-score: -0.68; nuclear/cytoplasmic p65 ratio, rep 1: 1.32; nuclear/cytoplasmic p65 ratio, rep 2: 1.27; low cell count flag: enough cells to score; Call: inactive
Cox4i2 — p65 translocation robust z-score: -0.42; nuclear/cytoplasmic p65 ratio, rep 1: 1.54; nuclear/cytoplasmic p65 ratio, rep 2: 1.69; low cell count flag: enough cells to score; Call: inactive
Wfikkn2 — p65 translocation robust z-score: -0.83; nuclear/cytoplasmic p65 ratio, rep 1: 1.4; nuclear/cytoplasmic p65 ratio, rep 2: 1.47; low cell count flag: enough cells to score; Call: inactive
1110059E24Rik — p65 translocation robust z-score: 0.9; nuclear/cytoplasmic p65 ratio, rep 1: 1.58; nuclear/cytoplasmic p65 ratio, rep 2: 1.65; low cell count flag: enough cells to score; Call: inactive
Efna5 — p65 translocation robust z-score: -2.46; nuclear/cytoplasmic p65 ratio, rep 1: 1.31; nuclear/cytoplasmic p65 ratio, rep 2: 1.05; low cell count flag: enough cells to score; Call: active
Fgf23 — p65 translocation robust z-score: -0.17; nuclear/cytoplasmic p65 ratio, rep 1: 1.35; nuclear/cytoplasmic p65 ratio, rep 2: 1.41; low cell count flag: enough cells to score; Call: inactive
Qtman — p65 translocation robust z-score: -0.07; nuclear/cytoplasmic p65 ratio, rep 1: 1.46; nuclear/cytoplasmic p65 ratio, rep 2: 1.35; low cell count flag: enough cells to score; Call: inactive
Vps72 — p65 translocation robust z-score: -0.08; nuclear/cytoplasmic p65 ratio, rep 1: 1.6; nuclear/cytoplasmic p65 ratio, rep 2: 1.42; low cell count flag: enough cells to score; Call: inactive
Fxyd5 — p65 translocation robust z-score: 0.99; nuclear/cytoplasmic p65 ratio, rep 1: 1.79; nuclear/cytoplasmic p65 ratio, rep 2: 1.55; low cell count flag: enough cells to score; Call: inactive
H1f4 — p65 translocation robust z-score: -1.35; nuclear/cytoplasmic p65 ratio, rep 1: 1.49; nuclear/cytoplasmic p65 ratio, rep 2: 1.3; low cell count flag: enough cells to score; Call: inactive
Arpc2 — p65 translocation robust z-score: -1.29; nuclear/cytoplasmic p65 ratio, rep 1: 1.39; nuclear/cytoplasmic p65 ratio, rep 2: 1.46; low cell count flag: enough cells to score; Call: inactive
